Assay results from article PMC6331727.
No constants are given. Whether binding was seen depends on the method and setting. In cells and extracts the contact can be indirect. Some entries that bind do so weakly or less than the wild type.

How the values were obtained:
[1] = target: T1, Mouse Prominin-1 (Prom1) (mouse (endogenous in incisor tissue and CLESCs)) (UniProt O54990); assay: proximity ligation; PLA in cultured CLESCs starved for 4 days, then treated with SHH (100 ng/ml) and importazole (40 uM) or DMSO for the indicated times
T1 sequence: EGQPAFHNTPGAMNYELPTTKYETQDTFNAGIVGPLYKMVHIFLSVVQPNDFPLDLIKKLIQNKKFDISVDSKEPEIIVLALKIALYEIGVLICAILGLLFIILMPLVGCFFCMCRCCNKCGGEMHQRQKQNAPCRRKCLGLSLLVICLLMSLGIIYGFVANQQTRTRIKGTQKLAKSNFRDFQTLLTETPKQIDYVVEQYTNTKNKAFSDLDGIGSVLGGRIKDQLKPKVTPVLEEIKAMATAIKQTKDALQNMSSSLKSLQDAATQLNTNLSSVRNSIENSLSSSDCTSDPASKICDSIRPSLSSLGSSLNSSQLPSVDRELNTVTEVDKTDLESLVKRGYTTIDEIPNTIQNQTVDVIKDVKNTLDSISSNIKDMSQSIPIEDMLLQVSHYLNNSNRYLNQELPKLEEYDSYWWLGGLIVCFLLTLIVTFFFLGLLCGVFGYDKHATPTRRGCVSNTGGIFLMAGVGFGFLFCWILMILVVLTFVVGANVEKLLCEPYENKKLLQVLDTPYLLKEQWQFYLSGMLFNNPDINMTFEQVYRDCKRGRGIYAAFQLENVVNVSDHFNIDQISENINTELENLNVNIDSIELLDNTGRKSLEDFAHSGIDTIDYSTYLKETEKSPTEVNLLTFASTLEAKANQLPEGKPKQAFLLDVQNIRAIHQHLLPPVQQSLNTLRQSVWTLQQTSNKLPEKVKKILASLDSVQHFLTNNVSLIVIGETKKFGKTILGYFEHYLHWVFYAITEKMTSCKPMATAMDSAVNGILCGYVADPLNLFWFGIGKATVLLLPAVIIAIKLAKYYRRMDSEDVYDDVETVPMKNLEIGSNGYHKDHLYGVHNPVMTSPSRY

[2] = target: T1, Mouse Prominin-1 (Prom1) (mouse (endogenous in incisor tissue and CLESCs)); assay: proximity ligation; in situ PLA (Duolink) on sagittal sections of P7 mouse lower incisor CLE; anti-Prom1 conjugated with MINUS probe and anti-Glis2 with PLUS probe, overnight at 4°C

B1: Mouse Glis2 (protein, UniProt Q8VDL9 1-521)
chain: MHSLDEPLDLKLSITKLRAAREKRERTLGVVRHHALHRELGLVDDSPAPGSPGSPPPGFLLNPKFPEKVDGRFSAAPLVDLSLSPPSGLDSPNGSSSLSPECQGNGDLPPLPTAVDFQPLRYLDGVPSSFQFFLPLGSGGALHLPASSFLPPPKDKCLSPELPLAKQLVCRWAKCNQLFELLQDLVDHVNDHHVKPEQDARYCCHWEGCARHGRGFNARYKMLIHIRTHTNEKPHRCPTCNKSFSRLENLKIHNRSHTGEKPYVCPYEGCNKRYSNSSDRFKHTRTHYVDKPYYCKMPGCHKRYTDPSSLRKHIKAHGHFVSHEQQELLQLRPPPKPPLPTPDSGSYVSGAQIIIPNPAALFGGPSLPGLPLPLPPGPLDLSALACGNGGGGGGGIGPGLPGSVLPLNLAKNPLLPSPFGAGGLGLPVVSLLGGSAGSKAEGEKGRGSVPARVLGLEDHKTPLERTERSRSRPSPDGLPLLPGTVLDLSTGNSAASSPEVLTPGWVVIPPGSVLLKPAVVN
For B1, the binding [1] was “binds” and the binding [2] was “binds”.
